Measured values: PubChem BioAssay AID493014 (National Center for Advancing Translational Sciences (NCATS), 2011)
The list shows a part of the results. Further columns of the screen follow, without active or inactive calls. Most of these compounds were active or inconclusive in the main read-out, so they are no random draw. Potencies come from curve fits of mixed quality, noted in brackets.

Assay: qHTS Assay to Find Inhibitors of Chronic Active B-Cell Receptor Signaling
Details: ABC-DLBCL IkBa-CBG/CBR reporter, luminescence ratio (green luciferase fused to IkBa over red control in TMD8 lymphoma cells), 4 h
Procedure, shortened: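 Compounds up to 46 uM were incubated four hours with TMD8 cells whose green CBG68 luciferase is fused to IkappaBalpha; red CBR luminescence normalised the signal, and concentration-effect curves were fitted to fusion, red and ratio data.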

[1] = measured here: CBR red luminescence, cell number
[2] = measured here: IkBa-CBG green luminescence

| SMILES | AC50 [1] | AC50 [2] |
| --- | --- | --- |
| c1ccc2c(c1)nc(Nc1ccc3c(c1)OCO3)c1nnnn12 | 8.2 µM [falling, partial curve] |  |
| O=[N+]([O-])CC(=Nc1ccc(Cl)cc1)N/N=C\c1oc(O)c2ccccc12 | 1.84 µM [falling, full curve, poor fit] |  |
| COC(=O)CSc1nc2ccc(N)cc2s1 |  | 11.2 µM [rising, partial curve, poor fit] |
| CC(C)SCc1nc2ccccc2[nH]1 |  | 29.1 µM [falling, single point] |
| O=C(COn1nnc2ccccc21)NCC1CCCCC1 | 3.26 µM [rising, full curve, poor fit] |  |
| CCOc1ccc(OCCCCN2CCCC2)cc1 | 2.06 µM [rising, partial curve, poor fit] |  |
| COc1ccc(-c2cc(C(=O)N3CCCC3)no2)cc1OC | 31.6 µM [falling, single point] |  |
| CC(C)[C@H](N)c1cn([C@@H](CO)C(=O)N2CCNCC2)nn1 | 2.06 µM [falling, partial curve, poor fit] |  |
| O=C(COC(=O)c1ccc(Cl)c(S(=O)(=O)N2CCCC2)c1)NCc1cccs1 | 35.5 µM [rising, single point] |  |
| COc1ccc(OCCNS(=O)(=O)c2ccc3oc4ccccc4c3c2)cc1 | 17.8 µM [rising, partial curve, poor fit] |  |
| Nc1c(C(=O)c2ccccc2)sc2nsc(SCCN3CCCC3)c12 | 7.08 µM [falling, full curve] |  |
| Oc1ccccc1C1CC(c2cccs2)=NC(c2cccc(Br)c2)N1 (configuration not stated) | 7.94 µM [falling, partial curve, poor fit] |  |
| C=CCN(c1nc(C)cc(OC)n1)S(=O)(=O)c1ccc(C)cc1 | 11.2 µM [rising, partial curve, poor fit] |  |
| Brc1ccc(-c2nc(-c3ccncc3)no2)o1 | 0.259 µM [rising, full curve, poor fit] |  |
| C#CCOCCOCCOCCNc1nc(N2CCN(C(=O)[C@H](CCC(=O)O)n3cc(C(N)CO)nn3)CC2)nc(N2CCN(C(=O)[C@H](CCC(=O)O)n3cc(C(N)CC(C)C)nn3)CC2)n1 (some centres not stated) | 35.5 µM [falling, single point] |  |
| Cc1ccc(/C=N/NC(=O)c2cc(-c3ccncc3)nc3ccccc23)o1 | 11.2 µM [rising, partial curve] | 10 µM [falling, partial curve] |
| COc1cc(NC(=O)C/C(C)=N/NC(=O)c2cccc(O)c2)c(OC)cc1Cl | 14.6 µM [falling, partial curve] |  |
| Clc1cccc(OCCN2CCOCC2)c1 | 5.62 µM [rising, single point] |  |
| CCN(CC)CCNC(=O)CCc1c(C)nc2c(c(C)nn2-c2ccc(C)c(C)c2)c1C | 10 µM [falling, partial curve, poor fit] |  |
| O=C(O)c1ccc2c3c(ncnc13)-c1ccccc1C2=O | 11.2 µM [falling, partial curve] |  |

2 neighbouring records out of the list so far, for reference:

| SMILES | AC50 [1] | AC50 [2] |
| --- | --- | --- |
| CCN(CC)CCNC(=O)CCc1c(C)nc2c(c(C)nn2-c2ccc(C)c(C)c2)c1C | 10 µM [falling, partial curve, poor fit] |  |
| O=C(O)c1ccc2c3c(ncnc13)-c1ccccc1C2=O | 11.2 µM [falling, partial curve] |  |

Further entries

| SMILES | AC50 [1] | AC50 [2] |
| --- | --- | --- |
| CC(=O)Nc1cccc(NC(=O)C(=O)Nc2ccc3c(c2)N(C(=O)C2CC2)CCC3)c1 | 5.8 µM [falling, partial curve] |  |
| COC(=O)CCC(=O)Nc1ccc2oc3c(c2c1)CCCC3 | 10 µM [falling, partial curve, poor fit] |  |
| O=C(CSc1cn[nH]n1)Nc1nc2ccccc2s1 | 6.31 µM [falling, partial curve, poor fit] |  |
| CSc1ccc(CN(C)C(=O)CN2C(=O)NC3(CCCC3)C2=O)cc1 | 18.4 µM [falling, partial curve] |  |
| Cc1ccccc1C(=O)NNC(=O)/C=C/c1ccccc1 | 10 µM [falling, partial curve] |  |
| Cc1ccc2nc(-c3ccc(NC(=O)CCS(=O)(=O)c4ccccc4)cc3)sc2c1 | 0.326 µM [rising, full curve] |  |
| CCCCn1c(-c2cccnc2)nc2cc3[nH]c(=O)c(C(C)C)nc3cc21 | 20 µM [falling, partial curve, poor fit] |  |
| COc1cc(NS(=O)(=O)c2cc(Br)cc3c2N(C(=O)C2CC2)CC3)cc(OC)c1 | 14.1 µM [falling, single point] |  |
| CCSc1nnc(NC(=O)C2Cc3ccccc3CN2S(=O)(=O)CC)s1 (configuration not stated) | 1.64 µM [rising, full curve, poor fit] |  |
| NNC(=O)COc1ccccc1[N+](=O)[O-] | 12.6 µM [rising, partial curve] |  |
| C=CCn1cnc2sc(C(=O)Nc3ccccc3OC)c(C)c2c1=O | 35.5 µM [rising, single point] |  |
| OCCN1CCN(c2nc(-c3ccccc3)c3cc(Br)ccc3n2)CC1 | 7.94 µM [falling, partial curve, poor fit] |  |
| CCOC(=O)Cn1cc(/C=N/NC(=O)c2cc3ccccc3o2)c2ccccc21 | 7.94 µM [falling, partial curve] |  |
| COC(=O)/C=C1/S/C(=N/NC(=O)c2ccccc2C)NC1=O | 1.64 µM [falling, full curve] |  |
| C/C(=N\NC(=O)c1ccc(NS(=O)(=O)c2cccs2)cc1)c1ccccn1 | 8.91 µM [falling, partial curve, poor fit] |  |
| COc1ccccc1N1CCN(C(=O)c2ccc(-c3ccccc3)cc2)CC1 | 22.4 µM [falling, single point] |  |
| Cc1nonc1OC(C)CNCCNc1ccc([N+](=O)[O-])cc1 (configuration not stated) | 0.708 µM [rising, partial curve, poor fit] |  |
| CCOC(=O)C1(Cc2ccc(OC)cc2)CCN(S(C)(=O)=O)CC1 | 8.91 µM [rising, partial curve, poor fit] |  |
| COc1cccc(C(=O)NNC(=O)C2CC(C)=C(C)CC2C(=O)O)c1 (configuration not stated) | 4.47 µM [falling, partial curve] |  |
| O=Cc1cc2ccccc2nc1SCc1ccc(Cl)c(Cl)c1 | 0.708 µM [rising, full curve, poor fit] | 1.58 µM [falling, partial curve] |
